Results taken from patent publication US12643922B2 (VIRGINIA COMMONWEALTH UNIVERSITY, priority 2021, dated 2026).
At least one compound was matched to its structure with a doubt left.

System: UA sulfation
Experiment: Inhibition of UA sulfation (formation of UA-sulfate by HPLC-MS)
Format: biochemical
Settings: UA concentration 2 μM; triplicate; Hill equation
Experimental: FIG. 5. IC50 of glycyrrhetinic acid. UA concentration was 2 μM. Determination was done in triplicate.
Table 1. IC50 values for several inhibitors of UA sulfation. UA concentration was 2 μM. Determinations were done in triplicate, and formation of UA-sulfate was determined by HPLC-MS followed by nonlinear regression with the Hill equation.

C[C@H](CCC(=O)O)[C@H]1CC[C@H]2[C@@H]3CC[C@@H]4C[C@H](O)CC[C@]4(C)[C@H]3CC[C@]12C [Lithocholic acid]
Hill slope: 1.9 ± 0.7 | IC50: 18.1 ± 2.4 µM
